## Primary screen of a compound library

Chains of the proteins cited; added tags and fusions are not shown.
UniProt E9BF75, entry or part of it: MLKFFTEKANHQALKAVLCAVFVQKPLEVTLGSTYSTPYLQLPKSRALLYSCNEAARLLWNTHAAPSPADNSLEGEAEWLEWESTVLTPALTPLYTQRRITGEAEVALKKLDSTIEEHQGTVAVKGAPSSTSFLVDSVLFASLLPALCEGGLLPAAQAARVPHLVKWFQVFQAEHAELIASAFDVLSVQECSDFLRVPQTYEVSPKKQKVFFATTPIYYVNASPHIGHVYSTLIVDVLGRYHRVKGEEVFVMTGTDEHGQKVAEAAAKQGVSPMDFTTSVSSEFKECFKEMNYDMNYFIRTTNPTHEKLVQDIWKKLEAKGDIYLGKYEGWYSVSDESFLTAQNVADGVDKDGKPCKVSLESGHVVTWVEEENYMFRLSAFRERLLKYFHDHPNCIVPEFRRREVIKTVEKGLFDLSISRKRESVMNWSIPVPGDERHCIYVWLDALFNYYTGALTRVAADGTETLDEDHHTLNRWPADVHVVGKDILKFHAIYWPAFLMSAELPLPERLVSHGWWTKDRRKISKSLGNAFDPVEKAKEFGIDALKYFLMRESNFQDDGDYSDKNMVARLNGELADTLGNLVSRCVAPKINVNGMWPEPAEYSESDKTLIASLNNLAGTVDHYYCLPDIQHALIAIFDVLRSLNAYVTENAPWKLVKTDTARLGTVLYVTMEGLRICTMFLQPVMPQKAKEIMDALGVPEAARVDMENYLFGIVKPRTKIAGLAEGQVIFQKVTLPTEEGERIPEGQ

Mtb heat-shock: 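Assay on Mycobacterium tuberculosis, filed only as a heat shock assay from Cornell; the read-out is not stated. The concentration is filed as 10 mM, unlikely as a test dose, so the dose is not known. Direction is inferred from retests: higher values go with stronger inhibition. Of about 69,000 compounds tested this way, about 930 (1.4%) reached 50% or more in at least one test.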
Mtb growth Cornell: 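Whole-cell assay for inhibitors of Mycobacterium tuberculosis growth, labelled Cornell in the record; the read-out is not stated. The concentration is filed as 10 mM, unlikely as a test dose, so the dose is not known. The record gives no direction; compounds strong in two other growth screens of this library score well above the rest, so higher reads as stronger inhibition. Of about 53,000 compounds tested this way, about 900 (1.7%) reached 50% or more in at least one test.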
LdMetRS: 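Methionyl-tRNA synthetase (putative), Leishmania donovani (UniProt E9BF75). Primary screen of methionyl-tRNA synthetase; the read-out is not stated. The test concentration is not given. The values are filed as inhibition. About 68,000 compounds were tested under these conditions; 0.035% (about 24) showed 50% or more at least once.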

All values are in %.
The record does not define 0% and 100%; most values in the screen are far below 50% and negative numbers occur (in some assays of this library far below -100).
Compounds were drawn at random from those tested, without regard to their results.
A dash means the value is not listed here; it may have been measured.

With Cc1nc2ccnn2c(C)c1CCC(=O)N1CCSCC1 the screen gave Mtb heat-shock: -8.988%; Mtb growth Cornell: -39.12%; LdMetRS: 7.429%. Result for CCOc1ncccc1NC(=O)N1CCc2ccccc2C1 was Mtb heat-shock: 17.44%; Mtb growth Cornell: 8.715%; LdMetRS: 2.857%. Cc1nonc1CN(C)Cc1cnn(-c2ccc(F)cc2)c1 read Mtb heat-shock: 26.58%; Mtb growth Cornell: 10.93%; LdMetRS: 13.12%. COc1ncc(-c2cc(NCCN(C)C)nc3[nH]ccc23)c(OC)n1 read Mtb heat-shock: -24.47%; Mtb growth Cornell: -22.77%; LdMetRS: 1.76%.

COCC1CN(CCOc2ccc(Cl)cc2)Cc2c1cnn2C (configuration not stated) gave LdMetRS: 14.08%. With CC(C)c1nn(C)c(N(C)C)c1CNCc1ccc(CO)c(F)c1 the screen gave Mtb heat-shock: 10.57%; Mtb growth Cornell: 10.76%; LdMetRS: 24.57%. Result for CN(Cc1nnc(-c2cccs2)o1)Cc1nc2c(s1)CCCC2 was Mtb heat-shock: -29.67%; LdMetRS: 10.53%. For COc1ccccc1CCN[C@@H]1c2ccccc2C2(CCNCC2)[C@H]1O the result was Mtb heat-shock: 7.64%; Mtb growth Cornell: 17.06%; LdMetRS: 23.37%.

Result for CCN(C)c1ncnc2c1CCN(Cc1ccncc1)CC2 was LdMetRS: 3.125%. CN1CCN(CC2CC2)C(=O)c2cnc(N3CC[C@@H](O)C3)nc21 gave Mtb heat-shock: -23.07%; LdMetRS: -0.6993%. For Cc1csc(C(C)(C)NCC(=O)N(C)Cc2ccc(C)o2)n1 the result was Mtb heat-shock: 7.436%; Mtb growth Cornell: 5.159%; LdMetRS: 10.79%. N#Cc1cccc(N2CCC(CO)(CCc3ccccc3)CC2)n1 read Mtb heat-shock: -30.47%; LdMetRS: 11.85%.

Nc1ncnc2nc(C3CCN(C(=O)Cc4ccccc4)C3)ccc12 (configuration not stated) gave Mtb heat-shock: -9.036%; Mtb growth Cornell: -23.95%; LdMetRS: 8.723%. CC[C@H](C)[C@H](N)C(=O)N1CC(=O)c2sc(NCc3ccccc3)nc2C1 read Mtb heat-shock: 11.18%; Mtb growth Cornell: 11.92%; LdMetRS: 9.466%. CCc1nc(CN(C)C2CCN(Cc3ccc(C#N)cc3F)C2)no1 (configuration not stated) read Mtb heat-shock: 13.54%; Mtb growth Cornell: -14.71%; LdMetRS: 3.268%. Result for CO[C@@H]1CCN(C2CCOCC2)C[C@@H]1Cc1ccccc1 was LdMetRS: 5.556%.

[H][C@@]12CCN(Cc3cc(C)on3)C[C@@]1([H])O[C@@H](C)C2 read Mtb heat-shock: -16.13%; Mtb growth Cornell: -8.93%. CS(=O)(=O)NCC1CCCN(C(=O)Nc2ccccc2F)C1 (configuration not stated) gave Mtb heat-shock: -7.241%; Mtb growth Cornell: -7.004%; LdMetRS: 17.79%. Result for O=C(c1ncccn1)N1C[C@@H]2COC[C@]2(c2nnc(C3CC3)o2)C1 was LdMetRS: 7.527%. COCC(C)NS(=O)(=O)c1ccc(Br)cn1 (configuration not stated) gave Mtb heat-shock: 12.23%; LdMetRS: 15.75%.

For O=S(=O)(N1CCCC1)N1CCCCC1CCc1ccccc1 (configuration not stated) the result was Mtb heat-shock: 0.6992%; Mtb growth Cornell: 32.3%; LdMetRS: 6.667%. With NS(=O)(=O)Cc1ccc(CNc2cncc(-n3cccn3)n2)cc1 the screen gave Mtb heat-shock: -5.699%; LdMetRS: 18.18%. CC1Cc2cc(-c3cncn3CC(=O)NC(C)(C)C)ccc2N1C (configuration not stated) read LdMetRS: 25.81%. CC(C)N(Cc1cccnc1)C(=O)CNc1ccc(C#N)cc1 gave Mtb heat-shock: 2.5%; LdMetRS: 7.67%.

CC(O)(CNc1ccc(Cl)c(C#N)n1)c1ccsc1 (configuration not stated) gave Mtb heat-shock: -37.25%; Mtb growth Cornell: 6.432%; LdMetRS: 5.943%. With COCCN1CCN(CCCS(C)(=O)=O)CC1C (configuration not stated) the screen gave Mtb heat-shock: -16.37%; Mtb growth Cornell: 2.961%; LdMetRS: 14.29%. CC(C(=O)Nc1sccc1C(N)=O)N(C)CCOc1ccccc1 (configuration not stated) gave Mtb heat-shock: 30.81%; Mtb growth Cornell: 5.345%; LdMetRS: 18.68%. Cn1ncnc1CNc1ccc2c(c1)N(C(=O)OC(C)(C)C)CCC2 read Mtb heat-shock: -7.385%; LdMetRS: 9.317%.

O=C1CCC(c2ccc(Cl)cc2)=NN1CN1CCSCC1 read Mtb heat-shock: 2.357%; Mtb growth Cornell: 9.012%; LdMetRS: 11.9%. With CN1CCN(C2CCN(Cc3noc(-c4ccccc4)n3)CC2)C1=O the screen gave Mtb heat-shock: -15.13%; Mtb growth Cornell: 32.64%; LdMetRS: 11.45%. Result for CC(=O)NCC(=O)N1CCCC1c1ccc(CN2CCOCC2)cn1 (configuration not stated) was Mtb heat-shock: 5.529%; Mtb growth Cornell: -3.119%; LdMetRS: 11.84%. CC(C(=O)NCc1cn2cc(Br)ccc2n1)S(C)(=O)=O (configuration not stated) gave Mtb heat-shock: -17.02%; Mtb growth Cornell: 2.022%; LdMetRS: 24.93%.

With COCCN1CCc2cc(C(=O)N(C)C)c(NCC3CC3)nc2CC1.O=C(O)C(F)(F)F.O=C(O)C(F)(F)F the screen gave Mtb heat-shock: -31.27%; Mtb growth Cornell: -8.406%. With O=C(C1CCN(c2cccnn2)C1)N1CCOCC1 (configuration not stated) the screen gave Mtb heat-shock: -12.9%; Mtb growth Cornell: -15.45%; LdMetRS: 7.717%. Result for Cc1cccc(C(=O)NCCCN2CCc3ccccc3C2)c1C was Mtb heat-shock: -18.21%; Mtb growth Cornell: -38.36%; LdMetRS: 17.05%. COc1c(CNC(C)C(=O)NC2CCCC2)c(C(C)C)nn1C (configuration not stated) gave Mtb heat-shock: -3.77%; LdMetRS: 16.54%.

With Cc1nc(CN(C)C(=O)CN(C)C)nc2c1CCC(=O)N2CCC(C)C the screen gave Mtb heat-shock: -14.46%; Mtb growth Cornell: 39.81%; LdMetRS: 8.491%. FC(F)(F)c1c[nH]c(C2CCN(c3ncccn3)CC2)n1 gave Mtb heat-shock: 3.669%; Mtb growth Cornell: 19.43%; LdMetRS: 16.72%.

For reference, 5 entries once more:

Compound,Mtb heat-shock,Mtb growth Cornell,LdMetRS
CN(Cc1nnc(-c2cccs2)o1)Cc1nc2c(s1)CCCC2,-29.67%,-,10.53%
CS(=O)(=O)NCC1CCCN(C(=O)Nc2ccccc2F)C1 (configuration not stated),-7.241%,-7.004%,17.79%
COc1ccccc1CCN[C@@H]1c2ccccc2C2(CCNCC2)[C@H]1O,7.64%,17.06%,23.37%
COCC1CN(CCOc2ccc(Cl)cc2)Cc2c1cnn2C (configuration not stated),-,-,14.08%
O=C(c1ncccn1)N1C[C@@H]2COC[C@]2(c2nnc(C3CC3)o2)C1,-,-,7.527%

Measurements from “University of Dundee, Small-Polar-MMV Screening Library” (2021), ChEMBL document CHEMBL3988442.